# Experimental data reported in patent US10174348B2, “Bacteria engineered for ester production” (priority 2013, dated 2019).
# For at least one compound, name, drawing or mass did not settle the structure.
# Tested on: KDHC
# Assay: KDHC activity assay in vitro, cell lysate
# Type: biochemical, P. putida
# Details: 25 mM 2-keto acid, lysate of strain with KDHC, 30° C.
compound,measurement,value
CC(=O)C(=O)O [pyruvate],Activity of KDHC with 2-keto acid as substrate,67 nmol NADH/min/mg protein
